These are yes or no findings as the source states them, for the method shown. For some of these results: In cells and extracts the contact can be indirect. Some binding calls cover weakened binding; strength is not graded here. Where a sequence is shown, tags or fusion partners need not be part of it.
Tests used:
[1] = biological target: T1, LetA (N-terminal 6xHis2xQH-TEV tagged LetA) (E. coli) (UniProt P0AD03); test: cryo-EM structure
T1 sequence: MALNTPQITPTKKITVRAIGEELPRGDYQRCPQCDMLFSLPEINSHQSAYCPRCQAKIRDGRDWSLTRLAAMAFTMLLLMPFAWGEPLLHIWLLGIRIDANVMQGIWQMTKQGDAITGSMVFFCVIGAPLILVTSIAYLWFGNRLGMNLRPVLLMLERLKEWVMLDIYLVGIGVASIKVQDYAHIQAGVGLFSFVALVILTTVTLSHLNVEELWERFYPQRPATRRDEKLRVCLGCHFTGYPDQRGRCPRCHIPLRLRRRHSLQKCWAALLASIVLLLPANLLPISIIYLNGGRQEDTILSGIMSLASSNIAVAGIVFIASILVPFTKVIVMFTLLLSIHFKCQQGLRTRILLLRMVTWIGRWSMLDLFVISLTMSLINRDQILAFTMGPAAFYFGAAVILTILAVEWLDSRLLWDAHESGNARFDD

[2] = biological target: T1, LetA (N-terminal 6xHis2xQH-TEV tagged LetA) (E. coli); test: SEC
[3] = biological target: T2, LetA K328 to alanine mutant (His-tagged) (E. coli) (UniProt P0AD03); test: pull-down
T2 sequence: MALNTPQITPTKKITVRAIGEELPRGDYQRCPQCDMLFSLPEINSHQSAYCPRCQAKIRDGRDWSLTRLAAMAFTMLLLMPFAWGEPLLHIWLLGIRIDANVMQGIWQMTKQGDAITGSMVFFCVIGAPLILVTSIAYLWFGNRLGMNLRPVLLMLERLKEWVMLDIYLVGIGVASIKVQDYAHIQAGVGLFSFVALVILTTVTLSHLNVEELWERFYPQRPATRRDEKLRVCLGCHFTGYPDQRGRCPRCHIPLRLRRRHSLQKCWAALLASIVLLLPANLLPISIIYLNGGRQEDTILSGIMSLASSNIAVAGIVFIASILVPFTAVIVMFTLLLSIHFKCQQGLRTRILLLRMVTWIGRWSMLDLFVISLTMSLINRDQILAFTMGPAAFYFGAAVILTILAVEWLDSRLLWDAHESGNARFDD

[4] = biological target: T3, LetA S321 to alanine mutant (His-tagged) (E. coli) (UniProt P0AD03); test: pull-down
T3 sequence: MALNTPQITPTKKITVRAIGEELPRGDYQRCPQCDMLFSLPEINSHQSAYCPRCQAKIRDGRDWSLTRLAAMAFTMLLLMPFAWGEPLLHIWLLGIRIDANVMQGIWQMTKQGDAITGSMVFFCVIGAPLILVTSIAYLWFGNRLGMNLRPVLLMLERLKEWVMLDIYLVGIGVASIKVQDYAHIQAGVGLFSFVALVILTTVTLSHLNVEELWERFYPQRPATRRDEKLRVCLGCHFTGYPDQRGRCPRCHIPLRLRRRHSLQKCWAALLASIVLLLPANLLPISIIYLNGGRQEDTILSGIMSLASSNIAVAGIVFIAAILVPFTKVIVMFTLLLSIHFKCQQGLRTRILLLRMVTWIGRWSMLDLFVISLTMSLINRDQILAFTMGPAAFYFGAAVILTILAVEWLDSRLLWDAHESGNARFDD

[5] = biological target: T4, LetA S364 to alanine mutant (His-tagged) (E. coli) (UniProt P0AD03); test: pull-down
T4 sequence: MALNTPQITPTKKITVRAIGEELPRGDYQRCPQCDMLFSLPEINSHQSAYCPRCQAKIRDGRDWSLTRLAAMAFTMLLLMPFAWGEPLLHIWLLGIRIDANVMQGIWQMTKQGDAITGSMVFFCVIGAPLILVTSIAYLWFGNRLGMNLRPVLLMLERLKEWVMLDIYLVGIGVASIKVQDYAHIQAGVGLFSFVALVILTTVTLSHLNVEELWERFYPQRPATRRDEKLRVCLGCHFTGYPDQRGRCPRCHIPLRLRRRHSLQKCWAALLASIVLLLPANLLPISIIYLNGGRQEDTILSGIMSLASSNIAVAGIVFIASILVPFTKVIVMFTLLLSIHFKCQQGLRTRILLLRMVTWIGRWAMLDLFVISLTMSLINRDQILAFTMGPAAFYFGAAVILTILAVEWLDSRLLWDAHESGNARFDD

[6] = biological target: T5, LetA D181 to alanine mutant (His-tagged) (E. coli) (UniProt P0AD03); test: pull-down
T5 sequence: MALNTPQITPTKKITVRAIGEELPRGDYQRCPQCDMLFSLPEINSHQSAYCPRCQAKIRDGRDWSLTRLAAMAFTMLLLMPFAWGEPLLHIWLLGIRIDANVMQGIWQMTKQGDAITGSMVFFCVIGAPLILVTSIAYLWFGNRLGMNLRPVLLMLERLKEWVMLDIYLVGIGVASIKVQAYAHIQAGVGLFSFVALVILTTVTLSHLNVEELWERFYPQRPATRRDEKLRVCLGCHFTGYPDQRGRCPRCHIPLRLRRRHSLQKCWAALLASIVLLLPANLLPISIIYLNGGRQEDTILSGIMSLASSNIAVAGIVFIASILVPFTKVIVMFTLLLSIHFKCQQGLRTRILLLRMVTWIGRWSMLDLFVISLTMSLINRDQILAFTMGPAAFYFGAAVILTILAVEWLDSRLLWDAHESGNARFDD

[7] = biological target: T6, LetA K178 to alanine mutant (His-tagged) (E. coli) (UniProt P0AD03); test: pull-down
T6 sequence: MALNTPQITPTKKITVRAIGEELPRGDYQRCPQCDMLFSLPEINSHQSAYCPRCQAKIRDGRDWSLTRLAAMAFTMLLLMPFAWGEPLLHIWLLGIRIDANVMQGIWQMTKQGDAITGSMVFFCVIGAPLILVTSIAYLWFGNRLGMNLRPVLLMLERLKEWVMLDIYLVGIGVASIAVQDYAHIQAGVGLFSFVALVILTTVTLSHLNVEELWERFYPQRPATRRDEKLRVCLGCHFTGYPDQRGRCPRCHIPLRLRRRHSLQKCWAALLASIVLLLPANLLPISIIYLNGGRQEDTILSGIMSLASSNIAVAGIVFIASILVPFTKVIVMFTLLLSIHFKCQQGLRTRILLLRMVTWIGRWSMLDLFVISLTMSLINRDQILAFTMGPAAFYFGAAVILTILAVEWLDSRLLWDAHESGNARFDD

[8] = biological target: T1, LetA (N-terminal 6xHis2xQH-TEV tagged LetA) (E. coli); test: pull-down
[9] = biological target: T7, LetA T402 to alanine mutant (His-tagged) (E. coli) (UniProt P0AD03); test: pull-down
T7 sequence: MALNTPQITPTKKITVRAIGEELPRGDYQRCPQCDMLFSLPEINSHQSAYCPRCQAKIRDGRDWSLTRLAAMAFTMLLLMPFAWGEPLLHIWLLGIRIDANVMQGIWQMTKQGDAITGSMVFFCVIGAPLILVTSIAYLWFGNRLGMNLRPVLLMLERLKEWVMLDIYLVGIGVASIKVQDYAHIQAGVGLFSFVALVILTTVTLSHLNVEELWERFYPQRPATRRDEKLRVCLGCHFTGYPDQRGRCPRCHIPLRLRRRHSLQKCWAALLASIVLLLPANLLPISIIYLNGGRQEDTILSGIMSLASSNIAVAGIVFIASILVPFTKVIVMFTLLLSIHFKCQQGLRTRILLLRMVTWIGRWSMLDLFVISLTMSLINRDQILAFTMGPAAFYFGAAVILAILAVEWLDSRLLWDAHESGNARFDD

[10] = biological target: T8, LetA D367 to alanine mutant (His-tagged) (E. coli) (UniProt P0AD03); test: pull-down
T8 sequence: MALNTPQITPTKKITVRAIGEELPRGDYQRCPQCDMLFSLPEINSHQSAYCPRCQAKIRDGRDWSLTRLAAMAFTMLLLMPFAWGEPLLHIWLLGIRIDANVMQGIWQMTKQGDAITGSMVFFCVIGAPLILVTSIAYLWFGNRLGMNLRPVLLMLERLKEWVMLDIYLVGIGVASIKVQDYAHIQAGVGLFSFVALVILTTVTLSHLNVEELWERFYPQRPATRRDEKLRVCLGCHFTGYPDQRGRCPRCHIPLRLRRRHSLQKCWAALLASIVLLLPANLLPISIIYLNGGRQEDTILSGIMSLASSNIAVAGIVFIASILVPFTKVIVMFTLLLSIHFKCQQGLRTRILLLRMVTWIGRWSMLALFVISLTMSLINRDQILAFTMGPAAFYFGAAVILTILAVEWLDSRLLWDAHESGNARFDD

Measured: binding

B1: LetB (Lipophilic Envelope-spanning Tunnel B), untagged (natural protein, E. coli, UniProt P76272 1-877, looked up)
chain: MSQETPASTTEAQIKNKRRISPFWLLPFIALMIASWLIWDSYQDRGNTVTIDFMSADGIVPGRTPVRYQGVEVGTVQDISLSDDLRKIEVKVSIKSDMKDALREETQFWLVTPKASLAGVSGLDALVGGNYIGMMPGKGKEQDHFVALDTQPKYRLDNGDLMIHLQAPDLGSLNSGSLVYFRKIPVGKVYDYAINPNKQGVVIDVLIERRFTDLVKKGSRFWNVSGVDANVSISGAKVKLESLAALVNGAIAFDSPEESKPAEAEDTFGLYEDLAHSQRGVIIKLELPSGAGLTADSTPLMYQGLEVGQLTKLDLNPGGKVTGEMTVDPSVVTLLRENTRIELRNPKLSLSDANLSALLTGKTFELVPGDGEPRKEFVVVPGEKALLHEPDVLTLTLTAPESYGIDAGQPLILHGVQVGQVIDRKLTSKGVTFTVAIEPQHRELVKGDSKFVVNSRVDVKVGLDGVEFLGASASEWINGGIRILPGDKGEMKASYPLYANLEKALENSLSDLPTTTVSLSAETLPDVQAGSVVLYRKFEVGEVITVRPRANAFDIDLHIKPEYRNLLTSNSVFWAEGGAKVQLNGSGLTVQASPLSRALKGAISFDNLSGASASQRKGDKRILYASETAARAVGGQITLHAFDAGKLAVGMPIRYLGIDIGQIQTLDLITARNEVQAKAVLYPEYVQTFARGGTRFSVVTPQISAAGVEHLDTILQPYINVEPGRGNPRRDFELQEATITDSRYLDGLSIIVEAPEAGSLGIGTPVLFRGLEVGTVTGMTLGTLSDRVMIAMRISKRYQHLVRNNSVFWLASGYSLDFGLTGGVVKTGTFNQFIRGGIAFATPPGTPLAPKAQEGKHFLLQESEPKEWREWGTALPK
binds: [1] | [2] | [3] | [4] | [5] | [6] | [7] | [8] | [9] | [10]

Source: publication doi:10.1101/2025.03.21.644421 (bioRxiv, 2025)
